{"source": "the supplement of paper PMC5407854", "about": "“Inhibitor of ppGalNAc-T3-mediated O-glycosylation blocks cancer cell invasiveness and lowers FGF23 levels” (eLife, 2017)", "note": "Whole data set: some 1,700 compounds, median “T3 sensor activation Q score (MG/GFP ratio z-score vs DMSO controls)” near 0.25, cut for the highest 2% near 1.9. The list shows a part of the results.", "data": [{"test_system": "ppGalNAc-T3 sensor", "assay": "T3 sensor activation Q score (MG/GFP ratio z-score vs DMSO controls) (SD units); higher = more sensor activation (inhibition of ppGalNAc-T3 glycosylation)", "conditions": "HEK293 sensor cells; 10 µM; 6 h", "description": "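Cells were treated with compound at 10 uM for 6 h, then MG/GFP ratio was read by flow cytometry (10,000 cells per well, duplicate wells). Q = (R - R_neg)/SD_neg relative to DMSO vehicle controls; the signal rises when the glycosyltransferase is inhibited.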", "values": [{"smiles": "CCCCN1C(=O)CC2CCOC21C", "note": "(configuration not stated)", "T3 sensor activation Q score": -0.85}, {"smiles": "c1ccc(Sc2ncccn2)nc1", "T3 sensor activation Q score": 0.5}, {"smiles": "C#Cc1cccc(NC(=O)c2ccc(Cl)cc2Cl)c1", "T3 sensor activation Q score": -0.65}, {"smiles": "O=[N+]([O-])c1cc(-c2cccnc2)n[nH]1", "T3 sensor activation Q score": 1}, {"smiles": "O=C(C(=O)c1cccnc1)c1cccnc1", "T3 sensor activation Q score": 1.75}, {"smiles": "O=C(CCl)NC1(C(=O)O)CCCC1", "T3 sensor activation Q score": 0.85}, {"smiles": "CCOC(=O)Nc1ccc(C(=O)/C=C/c2ccccc2)cc1", "T3 sensor activation Q score": 0.85}, {"smiles": "Cc1ccccc1NC(=O)Oc1cccc(OC(=O)c2ccccc2)c1", "T3 sensor activation Q score": 1.1}, {"smiles": "CCC/C(C)=C/c1ccc(CC)cn1", "T3 sensor activation Q score": -0.85}, {"smiles": "CC(C)=NNc1ncnc2nc[nH]c12", "T3 sensor activation Q score": 0.55}, {"smiles": "CO[C@H]1C[C@@H]2CC[C@@H](C)[C@@](O)(O2)C(=O)C(=O)N2CCCC[C@H]2C(=O)O[C@H]([C@H](C)C[C@@H]2CC[C@@H](OCCO)[C@H](OC)C2)CC(=O)[C@H](C)/C=C(\\C)[C@@H](O)[C@@H](OC)C(=O)[C@H](C)C[C@H](C)/C=C/C=C/C=C/1C", "T3 sensor activation Q score": 0.25}, {"smiles": "Nc1ccn([C@@H]2O[C@H](CO)[C@@H](O)C2(F)F)c(=O)n1", "T3 sensor activation Q score": -1.2}, {"smiles": "CC(=O)O[C@@]12CO[C@@H]1C[C@H](O)[C@@]1(C)C(=O)[C@H](O)C3=C(C)[C@@H](OC(=O)[C@H](O)[C@@H](NC(=O)OC(C)(C)C)c4ccccc4)C[C@@](O)([C@@H](OC(=O)c4ccccc4)[C@H]21)C3(C)C", "T3 sensor activation Q score": -1}, {"smiles": "N#CCCCCN1CCCC1", "T3 sensor activation Q score": -0.25}, {"smiles": "O=c1nc2onnc2c(/C=N\\O)[nH]1", "T3 sensor activation Q score": 1.2}, {"smiles": "Nc1cccc2c1C(=O)N(C1CCC(=O)NC1=O)C2=O", "note": "(configuration not stated)", "T3 sensor activation Q score": -0.1}, {"smiles": "NC(=O)Cc1ccc2c(c1)[nH]c1ccccc12", "T3 sensor activation Q score": 0.35}, {"smiles": "CC(C)(C)C(=O)/C=C/c1ccc(Oc2ccccc2)cc1", "T3 sensor activation Q score": -0.3}, {"smiles": "CCCCCc1cc(=O)[nH]c(=S)[nH]1", "T3 sensor activation Q score": -0.65}, {"smiles": "CC1(c2ccc3ccccc3c2)CCC(=O)O1", "note": "(configuration not stated)", "T3 sensor activation Q score": -0.4}, {"smiles": "COC1OC(CO)C(N=C(C)C)C1O", "note": "(configuration not stated)", "T3 sensor activation Q score": -0.35}, {"smiles": "CC(C)=CCC/C(C)=C\\C(N)=O", "T3 sensor activation Q score": 0.2}, {"smiles": "NC(=O)NC(=O)c1nccnc1C(=O)O", "T3 sensor activation Q score": 0.7}, {"smiles": "CCC(CC)c1ncc[nH]1", "T3 sensor activation Q score": 1.8}, {"smiles": "C=CCOc1c(CCC)cc(CCC)cc1C(N)=O", "T3 sensor activation Q score": 0.45}, {"smiles": "Cc1ccc(CC#N)c(-c2c(CC#N)ccc(C)c2C)c1C", "T3 sensor activation Q score": -0.85}, {"smiles": "CC(C)Cc1nnc(N)s1", "T3 sensor activation Q score": 0.55}, {"smiles": "Cc1cccc(N2CCN(CC(O)COc3ccccc3Cl)CC2)c1", "note": "(configuration not stated)", "T3 sensor activation Q score": 0}, {"smiles": "O=c1cc2oc3cc(O)c(O)cc3c(-c3ccccc3O)c-2cc1O", "T3 sensor activation Q score": -1.25}, {"smiles": "O=C1NCCc2c1[nH]c1ccccc21", "T3 sensor activation Q score": -0.6}, {"smiles": "CC(=O)OC1CCC2(C)C(=CCC3C2CCC2(C)C3CC3OC4(CCC(C)CN4)C(C)C32)C1", "note": "(configuration not stated)", "T3 sensor activation Q score": 0.25}, {"smiles": "Cc1ccc(NC(=O)Nc2ccccc2C(N)=O)cc1", "T3 sensor activation Q score": -0.95}, {"smiles": "CC1(C)CC[C@]2(C(=O)n3ccnc3)CC[C@]3(C)[C@H](C(=O)C=C4[C@@]5(C)C=C(C#N)C(=O)C(C)(C)[C@@H]5CC[C@]43C)[C@@H]2C1", "T3 sensor activation Q score": 0.2}, {"smiles": "C=C(C)c1nc(Oc2ccccc2)nc(Oc2ccccc2)n1", "T3 sensor activation Q score": 1.3}, {"smiles": "N#Cc1cnn2ccn(C3OC(CO)C(O)C3O)c12", "note": "(configuration not stated)", "T3 sensor activation Q score": 0.35}, {"smiles": "O=c1cc/c(=N\\Nc2ccccc2)c(=O)/c1=N/Nc1ccccc1", "T3 sensor activation Q score": 0.65}, {"smiles": "Cc1cc(N)c2cc(NC(=O)C=Cc3ccccc3Cl)ccc2n1", "T3 sensor activation Q score": -0.2}, {"smiles": "CN1C2CCC1CC(OC(c1ccccc1)c1ccccc1)C2", "note": "(configuration not stated)", "T3 sensor activation Q score": 0.15}, {"smiles": "CC(=O)c1c(O)c(C)c(O)c2c1OC1=CC(=O)/C(=C(/C)N)C(=O)C12C", "note": "(configuration not stated)", "T3 sensor activation Q score": 0.1}, {"smiles": "CN(C)C=Nc1ccc(Cl)c(Cl)c1", "T3 sensor activation Q score": 0}, {"smiles": "COc1cc(S(N)(=O)=O)c(OC)cc1N", "T3 sensor activation Q score": 1.5}, {"smiles": "Cn1nc(NC(=O)C(F)(F)F)c2ncc(-c3ccc(Cl)cc3)nc21", "T3 sensor activation Q score": 0.7}, {"smiles": "CC(C1=C(CCN(C)C)Cc2ccccc21)c1ccccn1", "note": "(configuration not stated)", "T3 sensor activation Q score": -0.2}, {"smiles": "Cc1cc(N(C)C)ccc1N=Nc1ccc2ncccc2c1", "T3 sensor activation Q score": -0.55}, {"smiles": "Cc1c(C#N)c2n(c1C)CCCC(=O)N2", "T3 sensor activation Q score": 1.25}, {"smiles": "OC(COc1ccccc1)CN1CCN(c2ccccc2)CC1", "note": "(configuration not stated)", "T3 sensor activation Q score": -0.25}, {"smiles": "CC(=O)Nc1cc(NC(C)=O)ncn1", "T3 sensor activation Q score": 0.6}, {"smiles": "NC(=S)N/N=C\\c1cc(-c2cccc(N)c2)ccn1", "T3 sensor activation Q score": -0.4}, {"smiles": "O=c1nccc(SCc2ccc(Cl)cc2Cl)[nH]1", "T3 sensor activation Q score": 0.15}, {"smiles": "CC(=O)OC1COC(OC(C)=O)CO1", "note": "(configuration not stated)", "T3 sensor activation Q score": 0.65}, {"smiles": "Cc1cc(C)c(C#N)c(Sc2nc(C)c([N+](=O)[O-])c(C)c2C#N)n1", "T3 sensor activation Q score": -0.15}, {"smiles": "C1=Cc2ccccc2Nc2ccccc21", "T3 sensor activation Q score": -0.35}, {"smiles": "CC(=O)NCC(O)c1ccc([N+](=O)[O-])cc1", "note": "(configuration not stated)", "T3 sensor activation Q score": 1.75}, {"smiles": "NNC(=O)Cc1cc(=O)[nH][nH]1", "T3 sensor activation Q score": 0.55}, {"smiles": "O=C(O)c1cncc(Br)c1", "T3 sensor activation Q score": -1.25}, {"smiles": "O=C(NCc1ccco1)Nc1cccc([N+](=O)[O-])c1", "T3 sensor activation Q score": 0.05}, {"smiles": "Nc1nc(Cl)nc2c1ncn2[C@H]1C[C@H](O)[C@@H](CO)O1", "T3 sensor activation Q score": 0.7}, {"smiles": "Oc1ccc2ccc3[nH]cnc3c2c1", "T3 sensor activation Q score": -1.25}, {"smiles": "NC(=Nc1nc(-c2ccccn2)cc2ccccc12)c1ccccn1", "T3 sensor activation Q score": -0.35}, {"smiles": "Cn1c(=O)c2c(nc(Oc3ccccc3)n2C)n(C)c1=O", "T3 sensor activation Q score": 0.7}, {"smiles": "COc1cccc2c1C(=O)c1c(O)c3c(c(O)c1C2=O)C[C@@](O)(C(=O)CO)C[C@@H]3O[C@H]1C[C@H](N)[C@H](O)[C@H](C)O1", "T3 sensor activation Q score": -1.1}, {"smiles": "C=CCNc1ncnc2sc(SC)nc12", "T3 sensor activation Q score": 1.35}, {"smiles": "O=c1[nH]c(=S)[nH]cc1Oc1ccc(Cl)cc1Cl", "T3 sensor activation Q score": 0.05}, {"smiles": "CCN1CCCC(Sc2nc3c([nH]2)c(=S)n(C)c(=O)n3C)C1", "note": "(configuration not stated)", "T3 sensor activation Q score": 1.1}, {"smiles": "OC[C@H]1O[C@@H](n2cnc3c2NC=NC[C@H]3O)C[C@@H]1O", "T3 sensor activation Q score": 1.3}, {"smiles": "O=C(O)/C=C\\C(=O)Nc1nccs1", "T3 sensor activation Q score": -0.3}, {"smiles": "CCOC(=O)c1c(C)nc(C)c(C(=O)OCC)c1-c1ccc(OC)cc1", "T3 sensor activation Q score": 0.3}, {"smiles": "CSc1ncc2ncn(C3OC(CO)C(O)C3O)c2n1", "note": "(configuration not stated)", "T3 sensor activation Q score": 1.45}, {"smiles": "Cc1cc(O)c(-c2cc(O)c(C)cc2O)cc1O", "T3 sensor activation Q score": 0.2}, {"smiles": "C(=C\\c1ccncc1)/c1ccncc1", "T3 sensor activation Q score": 0.45}, {"smiles": "Clc1ccc(Nc2nnc(-c3ccc4c(c3)OCO4)o2)cc1", "T3 sensor activation Q score": 0.55}, {"smiles": "CCOC(=O)CC(=O)NC(C)(C)CCCCC(C)(C)NC(=O)CC(=O)OCC", "T3 sensor activation Q score": -0.2}, {"smiles": "CCC(CNc1cc(OC)cc2cccnc12)NC1CCCCC1", "note": "(configuration not stated)", "T3 sensor activation Q score": 1.4}, {"smiles": "NC(N)=NC(N)=Nc1ccc(O)cc1", "T3 sensor activation Q score": -0.4}, {"smiles": "Cn1c2c(c(=O)n(C)c1=O)NC1(N2)C(=O)Nc2ccccc21", "note": "(configuration not stated)", "T3 sensor activation Q score": -1.7}, {"smiles": "CC(=O)Nc1nc(C)c(CCC2OCCO2)c(=O)[nH]1", "T3 sensor activation Q score": 0.75}, {"smiles": "CC(=O)NCC1(O)CCCC(C)C1", "note": "(configuration not stated)", "T3 sensor activation Q score": 0.8}]}]}
